Data as given in article PMC9947146.
Results are given in words; binding and its absence hold for the method and conditions named. Binding seen in cells or lysates may run through a third protein. Some binding calls cover weakened binding; strength is not graded here. Blank lines part the entries; values can stand above or below the binder they belong to.

How the values were obtained:
[1] = biological target: T1, HSPA14 (human (endogenous in CEM cells and patients' CD4+T cells)) (UniProt Q0VDF9); assay: co-IP; endogenous proteins; total proteins (RIPA lysis buffer) of CEM cells infected with HIV pseudovirus and of CD4+T cells of acute HIV infected patients incubated with HSPA14 or HspBP1 antibodies, Classic Magnetic IP/Co-IP Kit, immunoblot
T1 sequence: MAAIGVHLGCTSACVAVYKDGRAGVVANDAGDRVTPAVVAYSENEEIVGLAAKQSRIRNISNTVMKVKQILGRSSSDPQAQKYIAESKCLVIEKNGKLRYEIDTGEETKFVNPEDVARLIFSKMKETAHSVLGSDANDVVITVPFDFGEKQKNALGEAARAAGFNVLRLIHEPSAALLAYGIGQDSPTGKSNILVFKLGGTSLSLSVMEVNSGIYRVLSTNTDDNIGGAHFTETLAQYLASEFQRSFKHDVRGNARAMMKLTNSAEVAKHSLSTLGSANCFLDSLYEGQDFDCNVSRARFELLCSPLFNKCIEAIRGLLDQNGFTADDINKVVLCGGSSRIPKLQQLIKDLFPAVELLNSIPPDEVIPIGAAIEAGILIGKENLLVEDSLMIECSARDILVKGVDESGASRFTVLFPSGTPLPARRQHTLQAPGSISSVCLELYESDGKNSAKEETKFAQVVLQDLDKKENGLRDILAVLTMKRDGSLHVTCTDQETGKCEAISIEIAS

[2] = biological target: T2, HspBP1 (human (endogenous in CEM cells and patients' CD4+T cells)) (UniProt Q9NZL4); assay: as above
T2 sequence: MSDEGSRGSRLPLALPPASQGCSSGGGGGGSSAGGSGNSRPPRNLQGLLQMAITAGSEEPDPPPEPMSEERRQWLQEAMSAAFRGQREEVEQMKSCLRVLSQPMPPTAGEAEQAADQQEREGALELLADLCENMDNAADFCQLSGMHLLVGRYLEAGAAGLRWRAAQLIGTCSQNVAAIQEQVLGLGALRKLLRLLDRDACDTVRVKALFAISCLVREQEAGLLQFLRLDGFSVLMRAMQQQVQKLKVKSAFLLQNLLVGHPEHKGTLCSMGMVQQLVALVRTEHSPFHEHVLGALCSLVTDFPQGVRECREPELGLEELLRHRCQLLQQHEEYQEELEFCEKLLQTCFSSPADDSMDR

- binding [1]: binds
B1: HspBP1 (protein, UniProt Q9NZL4 1-359)
chain: T2 sequence

- binding [2]: binds
B2: HSPA14 (protein, UniProt Q0VDF9 1-509)
chain: T1 sequence
